# The supplement of paper PMC10849652
# Protein sequences, listed by entry. Tags and fused reporters are not part of them. Lines headed by an entry give the natural chain unless they say otherwise; changes in a name come on top.
# UniProt Q9UNH7: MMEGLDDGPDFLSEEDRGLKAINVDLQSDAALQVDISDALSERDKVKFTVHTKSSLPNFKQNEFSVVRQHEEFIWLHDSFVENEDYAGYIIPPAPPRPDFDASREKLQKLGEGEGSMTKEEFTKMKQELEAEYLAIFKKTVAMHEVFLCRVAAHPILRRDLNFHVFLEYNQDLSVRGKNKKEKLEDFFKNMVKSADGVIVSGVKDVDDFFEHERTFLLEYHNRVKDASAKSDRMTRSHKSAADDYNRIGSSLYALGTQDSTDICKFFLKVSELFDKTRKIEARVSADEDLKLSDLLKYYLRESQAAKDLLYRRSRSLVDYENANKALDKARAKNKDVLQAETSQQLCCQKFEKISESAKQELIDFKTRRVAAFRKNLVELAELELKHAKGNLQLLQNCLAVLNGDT
# UniProt Q8IYB5: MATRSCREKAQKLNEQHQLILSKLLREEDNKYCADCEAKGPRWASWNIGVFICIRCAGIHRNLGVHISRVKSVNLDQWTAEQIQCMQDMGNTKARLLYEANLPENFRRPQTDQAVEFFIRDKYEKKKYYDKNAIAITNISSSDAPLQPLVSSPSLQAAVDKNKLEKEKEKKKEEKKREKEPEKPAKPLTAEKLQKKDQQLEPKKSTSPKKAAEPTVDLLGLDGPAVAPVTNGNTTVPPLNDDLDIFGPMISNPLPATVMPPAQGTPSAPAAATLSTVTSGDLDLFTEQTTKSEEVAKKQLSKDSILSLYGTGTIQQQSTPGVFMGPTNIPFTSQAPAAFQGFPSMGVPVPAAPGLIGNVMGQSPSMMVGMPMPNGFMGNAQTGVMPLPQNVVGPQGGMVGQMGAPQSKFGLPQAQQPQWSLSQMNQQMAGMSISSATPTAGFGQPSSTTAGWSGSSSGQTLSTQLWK
# UniProt O00193: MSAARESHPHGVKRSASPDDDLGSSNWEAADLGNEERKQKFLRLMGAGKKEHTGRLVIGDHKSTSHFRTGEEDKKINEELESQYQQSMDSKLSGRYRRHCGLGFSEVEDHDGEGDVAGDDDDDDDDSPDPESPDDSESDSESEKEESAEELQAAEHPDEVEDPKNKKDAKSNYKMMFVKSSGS
# UniProt Q9Y5W9: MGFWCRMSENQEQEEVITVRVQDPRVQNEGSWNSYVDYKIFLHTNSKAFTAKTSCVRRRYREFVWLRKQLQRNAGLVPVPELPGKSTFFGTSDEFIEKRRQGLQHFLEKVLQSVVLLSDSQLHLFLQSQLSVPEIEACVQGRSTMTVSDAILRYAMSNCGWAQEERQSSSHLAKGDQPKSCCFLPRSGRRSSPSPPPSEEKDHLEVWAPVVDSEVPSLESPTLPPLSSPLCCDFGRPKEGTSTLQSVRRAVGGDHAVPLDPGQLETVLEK
# UniProt Q9UQE7: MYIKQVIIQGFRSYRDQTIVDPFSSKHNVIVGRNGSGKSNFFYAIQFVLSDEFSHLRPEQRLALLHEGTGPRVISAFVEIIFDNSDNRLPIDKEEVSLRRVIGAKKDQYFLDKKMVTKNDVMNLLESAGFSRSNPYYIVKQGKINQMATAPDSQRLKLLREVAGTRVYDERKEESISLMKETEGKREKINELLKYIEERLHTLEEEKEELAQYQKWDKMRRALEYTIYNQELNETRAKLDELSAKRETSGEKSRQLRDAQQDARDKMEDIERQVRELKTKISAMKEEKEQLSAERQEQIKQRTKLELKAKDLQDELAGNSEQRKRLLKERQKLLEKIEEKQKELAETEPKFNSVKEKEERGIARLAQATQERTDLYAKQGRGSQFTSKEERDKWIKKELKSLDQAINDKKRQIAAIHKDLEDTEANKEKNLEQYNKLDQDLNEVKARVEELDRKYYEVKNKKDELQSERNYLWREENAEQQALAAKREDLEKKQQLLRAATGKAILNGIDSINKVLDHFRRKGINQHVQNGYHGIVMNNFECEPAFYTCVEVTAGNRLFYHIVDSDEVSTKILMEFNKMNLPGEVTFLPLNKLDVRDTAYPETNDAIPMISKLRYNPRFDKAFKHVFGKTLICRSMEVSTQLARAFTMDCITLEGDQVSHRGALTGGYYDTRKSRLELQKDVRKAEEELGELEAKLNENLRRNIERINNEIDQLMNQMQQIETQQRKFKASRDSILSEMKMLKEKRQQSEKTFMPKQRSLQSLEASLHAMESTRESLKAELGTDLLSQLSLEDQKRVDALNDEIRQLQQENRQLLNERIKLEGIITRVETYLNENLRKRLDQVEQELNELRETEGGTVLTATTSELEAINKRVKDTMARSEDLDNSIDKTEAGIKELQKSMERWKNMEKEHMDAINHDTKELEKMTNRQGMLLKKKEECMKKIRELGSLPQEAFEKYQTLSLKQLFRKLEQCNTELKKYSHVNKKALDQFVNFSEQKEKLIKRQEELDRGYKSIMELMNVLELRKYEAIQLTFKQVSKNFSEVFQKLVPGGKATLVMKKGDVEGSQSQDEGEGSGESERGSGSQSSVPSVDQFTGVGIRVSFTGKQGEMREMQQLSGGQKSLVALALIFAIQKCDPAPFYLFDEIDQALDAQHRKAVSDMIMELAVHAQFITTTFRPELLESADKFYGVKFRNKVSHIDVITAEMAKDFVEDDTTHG
# UniProt O60271: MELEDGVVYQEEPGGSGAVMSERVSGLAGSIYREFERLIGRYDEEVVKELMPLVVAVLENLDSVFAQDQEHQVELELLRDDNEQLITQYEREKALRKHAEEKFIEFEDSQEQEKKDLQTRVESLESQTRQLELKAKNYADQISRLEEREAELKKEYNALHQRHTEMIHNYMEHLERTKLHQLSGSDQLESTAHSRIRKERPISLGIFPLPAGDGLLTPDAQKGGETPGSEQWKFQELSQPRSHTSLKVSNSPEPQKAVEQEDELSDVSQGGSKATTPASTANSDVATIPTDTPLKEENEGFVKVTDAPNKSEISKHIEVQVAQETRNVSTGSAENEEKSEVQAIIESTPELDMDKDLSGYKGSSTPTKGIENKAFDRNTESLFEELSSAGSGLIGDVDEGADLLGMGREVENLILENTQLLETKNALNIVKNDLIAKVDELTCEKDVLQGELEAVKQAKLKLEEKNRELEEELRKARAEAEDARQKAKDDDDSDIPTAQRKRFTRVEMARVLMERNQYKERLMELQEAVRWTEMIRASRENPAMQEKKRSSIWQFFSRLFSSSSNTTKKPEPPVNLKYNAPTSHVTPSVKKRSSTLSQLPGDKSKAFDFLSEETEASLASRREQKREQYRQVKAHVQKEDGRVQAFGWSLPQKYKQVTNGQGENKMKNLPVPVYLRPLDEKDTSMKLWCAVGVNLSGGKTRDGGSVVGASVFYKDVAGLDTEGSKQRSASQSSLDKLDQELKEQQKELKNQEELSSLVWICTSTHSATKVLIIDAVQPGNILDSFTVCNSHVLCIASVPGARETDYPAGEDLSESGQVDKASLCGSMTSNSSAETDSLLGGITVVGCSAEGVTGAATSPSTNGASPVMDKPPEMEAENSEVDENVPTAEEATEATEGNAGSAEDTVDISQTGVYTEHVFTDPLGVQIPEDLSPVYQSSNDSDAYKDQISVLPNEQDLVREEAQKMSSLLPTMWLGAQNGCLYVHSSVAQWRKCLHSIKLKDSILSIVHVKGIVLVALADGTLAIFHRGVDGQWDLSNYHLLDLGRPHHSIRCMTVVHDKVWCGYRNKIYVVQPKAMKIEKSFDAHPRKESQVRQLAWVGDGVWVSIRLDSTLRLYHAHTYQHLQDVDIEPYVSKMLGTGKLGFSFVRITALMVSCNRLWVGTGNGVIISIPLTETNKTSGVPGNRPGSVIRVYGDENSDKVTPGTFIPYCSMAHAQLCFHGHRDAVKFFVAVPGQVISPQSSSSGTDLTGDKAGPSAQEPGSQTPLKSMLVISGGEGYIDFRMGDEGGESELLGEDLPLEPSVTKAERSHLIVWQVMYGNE
# UniProt Q92536: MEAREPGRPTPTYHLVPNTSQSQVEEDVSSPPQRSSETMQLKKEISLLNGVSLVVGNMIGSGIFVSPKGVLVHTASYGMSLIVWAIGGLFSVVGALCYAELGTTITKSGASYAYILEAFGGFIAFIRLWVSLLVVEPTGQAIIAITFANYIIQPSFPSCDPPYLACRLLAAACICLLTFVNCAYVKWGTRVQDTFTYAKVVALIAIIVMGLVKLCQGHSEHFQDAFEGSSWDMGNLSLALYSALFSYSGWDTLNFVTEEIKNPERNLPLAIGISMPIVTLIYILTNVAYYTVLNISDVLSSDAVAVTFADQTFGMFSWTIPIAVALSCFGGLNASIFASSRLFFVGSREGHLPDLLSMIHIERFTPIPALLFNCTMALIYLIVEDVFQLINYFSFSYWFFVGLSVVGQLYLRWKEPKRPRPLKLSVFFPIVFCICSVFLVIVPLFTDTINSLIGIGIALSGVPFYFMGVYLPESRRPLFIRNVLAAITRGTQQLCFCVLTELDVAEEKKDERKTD
# UniProt Q96R06: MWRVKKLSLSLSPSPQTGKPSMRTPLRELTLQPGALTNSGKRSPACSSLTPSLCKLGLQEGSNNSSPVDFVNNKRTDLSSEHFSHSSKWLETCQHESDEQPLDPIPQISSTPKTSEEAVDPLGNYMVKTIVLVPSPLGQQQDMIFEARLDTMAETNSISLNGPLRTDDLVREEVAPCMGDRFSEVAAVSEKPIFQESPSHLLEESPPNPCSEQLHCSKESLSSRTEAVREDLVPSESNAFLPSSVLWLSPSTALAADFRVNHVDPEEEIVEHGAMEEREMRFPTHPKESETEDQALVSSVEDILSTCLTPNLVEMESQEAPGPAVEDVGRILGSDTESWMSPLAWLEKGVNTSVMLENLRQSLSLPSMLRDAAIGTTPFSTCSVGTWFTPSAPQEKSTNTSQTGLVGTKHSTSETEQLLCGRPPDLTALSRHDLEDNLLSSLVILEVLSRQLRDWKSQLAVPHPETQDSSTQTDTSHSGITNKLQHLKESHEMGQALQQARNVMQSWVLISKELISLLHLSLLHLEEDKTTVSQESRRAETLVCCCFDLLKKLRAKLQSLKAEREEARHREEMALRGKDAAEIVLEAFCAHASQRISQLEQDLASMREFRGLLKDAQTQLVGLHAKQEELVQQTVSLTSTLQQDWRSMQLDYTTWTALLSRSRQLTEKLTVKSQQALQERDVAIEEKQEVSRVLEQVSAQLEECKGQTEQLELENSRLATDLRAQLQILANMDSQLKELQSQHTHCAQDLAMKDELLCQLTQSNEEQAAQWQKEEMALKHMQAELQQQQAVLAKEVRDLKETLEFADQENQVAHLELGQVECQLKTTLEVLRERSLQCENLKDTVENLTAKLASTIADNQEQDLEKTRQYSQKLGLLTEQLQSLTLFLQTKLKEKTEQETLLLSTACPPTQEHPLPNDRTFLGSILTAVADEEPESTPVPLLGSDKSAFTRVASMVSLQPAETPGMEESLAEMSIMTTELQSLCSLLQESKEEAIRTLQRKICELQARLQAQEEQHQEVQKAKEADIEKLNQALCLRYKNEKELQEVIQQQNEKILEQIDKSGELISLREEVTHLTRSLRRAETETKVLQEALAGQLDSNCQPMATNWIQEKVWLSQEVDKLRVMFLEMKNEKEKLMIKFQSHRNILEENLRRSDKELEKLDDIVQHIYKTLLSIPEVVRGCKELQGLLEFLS
# Some of the results follow.
# Assays:
# Assay in all cases: log2 fold change, soluble protein after heating vs DMSO (PISA); higher = thermal stabilisation; K562 cells, 10 uM, 30 min; active = over 0.2 and 3.5 SD of the protein, either way, in both replicates (recomputed)
# bafetinib = compound: Cc1ccc(NC(=O)c2ccc(CN3CC[C@H](N(C)C)C3)c(C(F)(F)F)c2)cc1Nc1nccc(-c2cncnc2)n1 [bafetinib]
# Procedure, shortened: (§1)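 K562 cells (2×10^6 cells/mL) were treated with 10 μM compound for 30 min, and aliquots were heated for 3 min over 48°C-58°C. Pooled aliquots were extracted in PBS with 0.5% NP-40 at 4°C, and the supernatant after 21,000xg for 90 min was measured by TMTpro 16plex LC-MS/MS with channel sums equalised. Reported thermal stability, relative to control samples and from duplicates, is a log2 fold change.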
# [1] = compound: Cc1cccc(CC(=O)N2CCc3c2ccc(-c2cn(C)c4ncnc(N)c24)c3F)n1
# Procedure, shortened: as §1
# nilotinib = compound: Cc1cn(-c2cc(NC(=O)c3ccc(C)c(Nc4nccc(-c5cccnc5)n4)c3)cc(C(F)(F)F)c2)cn1 [nilotinib]
# Procedure, shortened: as §1
# [2] = compound: Cc1nc(Nc2n[nH]c3c2CN(C(=O)N[C@H](CN(C)C)c2ccccc2)C3(C)C)c2sccc2n1
# Procedure, shortened: as §1
# dasatinib = compound: Cc1nc(Nc2ncc(C(=O)Nc3c(C)cccc3Cl)s2)cc(N2CCN(CCO)CC2)n1 [dasatinib]
# Procedure, shortened: as §1
# [3] = compound: Cc1ncc(-c2ccnc(Nc3ccc(S(C)(=O)=O)cc3)n2)n1C(C)C
# Procedure, shortened: as §1
# [4] = compound: Cn1cc(-c2ccc3c(c2)CCN3C(=O)Cc2cccc(C(F)(F)F)c2)c2c(N)ncnc21
# Procedure, shortened: as §1
# [5] = compound: Cn1cc(-c2ccc3nnc(C(F)(F)c4ccc5ncccc5c4)n3n2)cn1
# Procedure, shortened: as §1
# tipifarnib = compound: Cn1cncc1[C@@](N)(c1ccc(Cl)cc1)c1ccc2c(c1)c(-c1cccc(Cl)c1)cc(=O)n2C [tipifarnib]
# Procedure, shortened: as §1
# mubritinib = compound: FC(F)(F)c1ccc(/C=C/c2nc(COc3ccc(CCCCn4ccnn4)cc3)co2)cc1 [mubritinib]
# Procedure, shortened: as §1
# [6] = compound: NC(=O)Nc1cc(-c2cccc(F)c2)sc1C(=O)N[C@H]1CCCNC1
# Procedure, shortened: as §1
# [7] = compound: NC(=O)c1cnc(N[C@@H]2CCCC[C@@H]2N)nc1Nc1cccc(-n2nccn2)c1
# Procedure, shortened: as §1
# [8] = compound: NC1(c2ccc(-c3nc4ccn5c(=O)[nH]nc5c4cc3-c3ccccc3)cc2)CCC1
# Procedure, shortened: as §1
# [9] = compound: NCC(=O)Nc1ccc(-n2nc(C(F)(F)F)cc2-c2ccc3c(ccc4ccccc43)c2)cc1
# Procedure, shortened: as §1
# entinostat = compound: Nc1ccccc1NC(=O)c1ccc(CNC(=O)OCc2cccnc2)cc1 [entinostat]
# Procedure, shortened: as §1
# vorinostat = compound: O=C(CCCCCCC(=O)Nc1ccccc1)NO [vorinostat]
# Procedure, shortened: as §1
# citarinostat = compound: O=C(CCCCCCNC(=O)c1cnc(N(c2ccccc2)c2ccccc2Cl)nc1)NO [citarinostat]
# Procedure, shortened: as §1
# silmitasertib = compound: O=C(O)c1ccc2c(c1)nc(Nc1cccc(Cl)c1)c1ccncc12 [silmitasertib]
# Procedure, shortened: as §1
# [10] = compound: O=C1NC(=O)C(c2cnc3ccccn23)=C1c1cn2c3c(cc(F)cc13)CN(C(=O)N1CCCCC1)CC2
# Procedure, shortened: as §1
# [11] = compound: c1cc(OCCN2CCCCC2)cc(-c2n[nH]c3ccc(-c4nnc[nH]4)cc23)c1
# Procedure, shortened: as §1
Target,log2 fold change (bafetinib),log2 fold change [1],log2 fold change (nilotinib),log2 fold change [2],log2 fold change (dasatinib),log2 fold change [3],log2 fold change [4],log2 fold change [5],log2 fold change (tipifarnib),log2 fold change (mubritinib),log2 fold change [6],log2 fold change [7],log2 fold change [8],log2 fold change [9],log2 fold change (entinostat),log2 fold change (vorinostat),log2 fold change (citarinostat),log2 fold change (silmitasertib),log2 fold change [10],log2 fold change [11]
SNX6 (UniProt Q9UNH7),inactive: -0.132,inactive: 0.138,inactive: -0.214,inactive: 0.012,inactive: -0.176,active: -0.47,inactive: 0.094,inactive: 0.019,inactive: -0.045,inactive: 0.058,inactive: -0.027,active: -0.376,active: -0.403,inactive: 0.007,inactive: 0.075,inactive: 0.15,inactive: 0.064,inactive: -0.142,inactive: -0.003,inactive: -0.087
SMAP1 isoform 2 (UniProt Q8IYB5),inactive: 0.026,inactive: 0.034,inactive: 0.034,inactive: -0.111,inactive: 0,inactive: 0.019,inactive: 0.006,inactive: -0.014,inactive: -0.084,inactive: 0.043,inactive: 0.036,inactive: -0.034,inactive: 0.025,inactive: 0.046,inactive: 0.045,inactive: 0.058,inactive: 0.062,inactive: 0.03,inactive: 0.045,inactive: 0.009
SMAP (UniProt O00193),inactive: 0.043,inactive: -0.022,inactive: -0.004,inactive: 0.006,inactive: 0.033,inactive: -0.011,inactive: 0.005,inactive: -0.027,inactive: -0.042,inactive: 0.038,inactive: 0.007,inactive: -0.021,inactive: 0.12,inactive: 0.013,inactive: 0.016,inactive: -0.047,inactive: -0.029,inactive: -0.033,inactive: 0.006,inactive: 0.02
SNX11 (UniProt Q9Y5W9),inactive: -0.259,inactive: 0.081,inactive: -0.033,inactive: -0.108,inactive: -0.022,active: -0.44,inactive: 0.077,inactive: 0.002,inactive: 0.178,inactive: -0.015,inactive: -0.052,inactive: -0.277,active: -0.378,inactive: -0.052,inactive: 0.097,inactive: 0,inactive: 0.233,inactive: 0.025,inactive: -0.023,inactive: -0.072
SMC3 (UniProt Q9UQE7),inactive: 0.026,inactive: 0.022,inactive: 0.024,inactive: -0.097,inactive: -0.045,inactive: -0.047,inactive: 0.02,inactive: 0.008,inactive: 0.021,inactive: 0.025,inactive: -0.02,inactive: -0.061,inactive: -0.011,inactive: -0.043,inactive: 0.007,inactive: 0.088,inactive: 0.05,inactive: -0.012,inactive: -0.011,inactive: -0.087
SPAG9 (UniProt O60271),inactive: -0.056,inactive: -0.014,inactive: -0.039,inactive: -0.074,inactive: -0.076,inactive: 0.015,inactive: -0.018,inactive: 0.012,inactive: -0.005,inactive: 0.054,inactive: -0.042,inactive: -0.13,inactive: -0.123,inactive: -0.055,inactive: 0.034,inactive: 0.023,inactive: 0.01,inactive: 0.038,inactive: -0.014,inactive: -0.024
SLC7A6 (UniProt Q92536),inactive: 0.042,inactive: 0.029,inactive: 0.046,inactive: 0.008,inactive: 0.04,inactive: -0.007,inactive: 0.024,inactive: -0.087,inactive: -0.016,inactive: 0.049,inactive: -0.07,inactive: 0.089,inactive: 0.06,inactive: -0.017,inactive: -0.029,inactive: -0.003,inactive: 0.026,inactive: 0.007,inactive: -0.135,inactive: -0.049
SPAG5 (UniProt Q96R06),inactive: 0.111,inactive: -0.055,inactive: -0.105,inactive: -0.172,inactive: -0.007,inactive: 0.046,inactive: -0.156,inactive: -0.04,inactive: -0.091,inactive: -0.257,inactive: 0.056,inactive: -0.326,inactive: 0.035,inactive: -0.072,inactive: 0.087,inactive: 0.017,inactive: 0.022,inactive: 0.171,inactive: 0.172,inactive: -0.091

# Some of the entries above, set out differently.
Target	log2 fold change (bafetinib)	log2 fold change [1]	log2 fold change (nilotinib)	log2 fold change [2]	log2 fold change (dasatinib)	log2 fold change [3]	log2 fold change [4]	log2 fold change [5]	log2 fold change (tipifarnib)	log2 fold change (mubritinib)	log2 fold change [6]	log2 fold change [7]	log2 fold change [8]	log2 fold change [9]	log2 fold change (entinostat)	log2 fold change (vorinostat)	log2 fold change (citarinostat)	log2 fold change (silmitasertib)	log2 fold change [10]	log2 fold change [11]
SMAP (UniProt O00193)	inactive: 0.043	inactive: -0.022	inactive: -0.004	inactive: 0.006	inactive: 0.033	inactive: -0.011	inactive: 0.005	inactive: -0.027	inactive: -0.042	inactive: 0.038	inactive: 0.007	inactive: -0.021	inactive: 0.12	inactive: 0.013	inactive: 0.016	inactive: -0.047	inactive: -0.029	inactive: -0.033	inactive: 0.006	inactive: 0.02
SNX11 (UniProt Q9Y5W9)	inactive: -0.259	inactive: 0.081	inactive: -0.033	inactive: -0.108	inactive: -0.022	active: -0.44	inactive: 0.077	inactive: 0.002	inactive: 0.178	inactive: -0.015	inactive: -0.052	inactive: -0.277	active: -0.378	inactive: -0.052	inactive: 0.097	inactive: 0	inactive: 0.233	inactive: 0.025	inactive: -0.023	inactive: -0.072
